Values from PubChem BioAssay AID652259 (Drosophila RNAi Screening Center, 2013).

Test: 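Knock-downs that push a Wingless-driven reporter up or down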 (primary screen)
System: Drosophila clone 8 imaginal disc epithelial cells
Reagent: long dsRNA against Drosophila genes
Conditions: pathway stimulated by co-transfected Wingless expression plasmid
Measurement: 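Dual luciferase reads per well after Wingless plasmid stimulation: reporter firefly light and Renilla control light; activity is firefly divided by Renilla, a ratio not deposited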
Reading the numbers: firefly reporter light: higher = more Wg reporter light, before normalisation; Renilla control light: higher = more transfected or surviving cells
Active means: 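a knock-down is a candidate when at least two out of four statistical tests show it departing from its plate mean; one test alone signals a weak candidate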
Meaning of the calls: active = candidate regulator (raises or lowers reporter); inactive = not a candidate
The deposit covers about 22,000 reagents; this is an unselected part of those with a known target gene and a result. Of all reagents, 233 (1.1%) got an active call. 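Light values are raw, unnormalised plate reads; the ratio scores behind the reporter calls were not deposited.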 Entries without a mark were called inactive. Not stated in the record: the amount of reagent, the time to read-out, the dose of the treatment.

| target | DRSC id | firefly reporter light, replicate 1 | firefly reporter light, replicate 2 | Renilla control light, replicate 1 | Renilla control light, replicate 2 |
| --- | --- | --- | --- | --- | --- |
| CG33919 | DRSC04940 | 22285 | – | 12684 | – |
| CG43108 | DRSC05654 | 29304 | – | 18710 | – |
| CG15124 | DRSC06546 | 5412 | – | 1937 | – |
| LUBEL (Linear Ubiquitin E3 ligase) | DRSC02141 | 2118 | 5425 | 641 | 1752 |
| CG44325 | DRSC18039 | 23788 | – | 11779 | – |
| CG44325 | DRSC18423 | 22737 | – | 9957 | – |
| MRG15 (MORF-related gene 15) | DRSC16731 | 5131 | – | 2114 | – |
| CG1801 | DRSC20556 | 28288 | – | 13926 | – |
| CG1764 | DRSC19779 | 2810 | 7078 | 1251 | 3128 |
| CG1463 | DRSC19603 | 2851 | 4764 | 859 | 1620 |
| Cyp313b1 (Cytochrome P450 313b1) | DRSC16629 | 14816 | – | 3424 | – |
| Poxm (Pox meso) | DRSC16793 | 19398 | – | 6208 | – |
| Poxm (Pox meso) | DRSC22839 | 6.66e5 | 6.43e5 | 2.79e5 | 3.37e5 |
| CycK (Cyclin K) | DRSC03714 | 18839 | – | 4199 | – |
| CG4617 | DRSC18377 | 2426 | 5841 | 758 | 1773 |
| Ttc19 (Tetratricopeptide repeat domain 19) | DRSC02474 | 1877 | 4624 | 547 | 2001 |
| Sec71 (Secretory 71) | DRSC01893 | 2710 | 8129 | 1018 | 3138 |
| pyx (pyrexia) | DRSC08510 | 7712 | – | 2749 | – |
| pyx (pyrexia) | DRSC08511 | 5883 | – | 2118 | – |
| Tsf2 (Transferrin 2) | DRSC09751 | 2741 | – | 1303 | – |
| Mzt1 (Mitotic spindle organizing protein 1) | DRSC07979 | 3648 | – | 1442 | – |
| alphaTub84D (alpha-Tubulin at 84D) | DRSC12623 | 17431 | – | 2848 | – |
| rumpel | DRSC18436 | 14868 | – | 8025 | – |
| CG17267 | DRSC15207 | 14080 | – | 3560 | – |
| Pgant9 (Polypeptide N-Acetylgalactosaminyltransferase 9) | DRSC05621 | 19440 | – | 9050 | – |
| Pgant9 (Polypeptide N-Acetylgalactosaminyltransferase 9) | DRSC06584 | 9288 | – | 2699 | – |
| Pgant9 (Polypeptide N-Acetylgalactosaminyltransferase 9) | DRSC07185 | 10199 | – | 3057 | – |
| Pgant9 (Polypeptide N-Acetylgalactosaminyltransferase 9) | DRSC07186 | 11148 | – | 4168 | – |
| Pgant9 (Polypeptide N-Acetylgalactosaminyltransferase 9) | DRSC07187 | 9412 | – | 3334 | – |
| Pgant9 (Polypeptide N-Acetylgalactosaminyltransferase 9) | DRSC07189 | 7512 | – | 2541 | – |
| Pgant9 (Polypeptide N-Acetylgalactosaminyltransferase 9) | DRSC21807 | 6.76e5 | 6.59e5 | 3.41e5 | 2.38e5 |
| Pgant9 (Polypeptide N-Acetylgalactosaminyltransferase 9) | DRSC22076 | 9.49e5 | 9.06e5 | 4.58e5 | 4.91e5 |
